Measurements taken from patent US20230272413A1 (UNITED STATES OF AMERICA AS REPRESENTED BY THE SECRETARY OF …, published 2023).
Results are given in words; binding and its absence hold for the method and conditions named. Some results given as binding are weak or reduced against the parent protein; the word gives no strength.

Assays:
[1] = target: TuYV ^NRTD (Turnip yellows virus) (UniProt P09514); assay: SEC-MALS, homodimer
[2] = target: TuYV ^NRTD (Turnip yellows virus) (UniProt P09514); assay: X-ray crystal structure, homodimer

B1: TuYV ^NRTD (protein)
chain: KKYRFIVYTGVPVTRIMAQSTDDAISLYDMPSQRFRYIEDENMNWTNLDSRWYSQNSLKAIPMIIVPVPQGEWTVEISMEGYQPTSSTTDPNKDKQDGLIAYNDDLSEGWNVGIYNNVEITNNKADNTLKYGHPDMELNGCHFNQGQCLERDGDLTCHIKTTGDNASFFVVGPAVQKQSKYNYAVSYGAWTDRMMEIGMIAIALDEQGSSGSVKTERPKRVGHSMAVSTWETIKLP
binding [1]: binds
binding [2]: binds
